According to PubChem BioAssay AID720504 (National Center for Advancing Translational Sciences (NCATS), 2013):
In all, about 360,000 compounds went through this assay and about 10,000 (2.8%) were called active. The shares of active, inactive and inconclusive entries below differ from those in the screen. Calls come from the whole dose curve; as a rule, active = well fitted inhibition curve with a large enough effect; inconclusive = small, poorly fitted or top-dose-only effect; inactive = flat fitted curve, though single readings scatter. Where the call is inconclusive, the potency comes from a doubtful curve fit. Where a structure was tested more than once in an assay, its records may differ in their call.

Sequences of proteins named here, by UniProt entry; tags and fusion partners are left off.
UniProt P53350, whole entry, looked up: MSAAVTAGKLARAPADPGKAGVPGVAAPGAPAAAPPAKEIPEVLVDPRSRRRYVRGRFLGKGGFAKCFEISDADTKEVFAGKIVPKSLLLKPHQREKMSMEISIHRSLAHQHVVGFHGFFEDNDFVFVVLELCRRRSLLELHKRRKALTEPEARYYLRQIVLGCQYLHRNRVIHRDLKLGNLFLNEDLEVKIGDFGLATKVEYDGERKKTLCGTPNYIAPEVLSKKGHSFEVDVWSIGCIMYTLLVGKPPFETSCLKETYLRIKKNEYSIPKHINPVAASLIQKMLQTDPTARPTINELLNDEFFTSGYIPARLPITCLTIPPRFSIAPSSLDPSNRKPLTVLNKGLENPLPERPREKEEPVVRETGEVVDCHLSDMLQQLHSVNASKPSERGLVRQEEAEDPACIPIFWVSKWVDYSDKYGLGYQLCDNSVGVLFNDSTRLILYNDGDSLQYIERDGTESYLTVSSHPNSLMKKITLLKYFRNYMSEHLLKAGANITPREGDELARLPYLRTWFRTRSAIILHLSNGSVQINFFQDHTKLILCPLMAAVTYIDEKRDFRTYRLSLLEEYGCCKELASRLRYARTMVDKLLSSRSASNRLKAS

target: Serine/threonine-protein kinase PLK1 (Homo sapiens) (UniProt P53350); test: qHTS for Inhibitors of PLK1-PDB (polo-like kinase 1 - polo-box domain): Primary Screen; details: Plk1 PBD binding of FITC phosphopeptide, fluorescence polarization; note: nearly all actives have a fitted effect of over 65% in size; for max response, negative = inhibition: series mostly up to about 57 µM
% is set by controls: 0 for no effect and ±100 for the full control effect; potency is the fitted concentration of half-maximal effect.

Row | Structure (SMILES) | max response, negative = inhibition | Potency
1 | COc1ccc(CN2CCN(Cc3ccccc3F)CC2)c(OC)c1 | inactive: 6.31% | –
2 | O=C(O)C/C(=C\c1cccc(NC(=O)c2ccccc2Cl)c1)c1nc2ccccc2s1 | – | active: 26.7 µM
3 | O=C(CCCc1ccccc1)NC1CC1 | – | inconclusive: 26.7 µM [inhibitor, single point]
4 | O=C(Nc1ccc2nc(-c3ccco3)c(-c3ccco3)nc2c1)N1CCCCCC1 | – | active: 23.8 µM
5 | CCN(CC)CCn1c(=S)[nH]c2ccc(Br)cc2c1=O | – | inconclusive: 23.8 µM [inhibitor, partial curve, poor fit]
6 | O=C(CSc1nnc(C2CC2)n1C1CC1)c1ccc(Br)s1 | – | inconclusive: 26.7 µM [inhibitor, partial curve]
7 | CNC(=S)NNC(=O)c1ccc(=O)n(Cc2cccc(C(F)(F)F)c2)c1 | – | active: 2.99 µM
8 | O=C(O)c1cc(-c2ccco2)nc2ccc(Br)cc12 | – | active: 4.23 µM
9 | C/C(CCc1ccco1)=N\NC(=O)CNc1c(Br)cc(Br)cc1Br | – | inconclusive: 11.9 µM [inhibitor, partial curve]
10 | Cc1ccc(N=Cc2cc3c(cc2[N+](=O)[O-])OCO3)cc1[N+](=O)[O-] | – | inconclusive: 29.9 µM [inhibitor, partial curve]
11 | Cc1ccc(C(=O)CNc2cccc(Cl)c2)cc1 | – | inconclusive: 23.8 µM [inhibitor, single point]
12 | O=c1[nH]c2ccc(N/C(=N/S(=O)(=O)c3ccccc3)c3ccccc3)cc2[nH]1 | – | inconclusive: 23.8 µM [inhibitor, partial curve]
13 | O=C1CCN(S(=O)(=O)c2ccccc2)C2CCCCC12 (stereo unspecified) | – | inconclusive: 33.6 µM [inhibitor, partial curve, poor fit]
14 | S=C1SCN(Cc2ccccc2)CN1Cc1ccco1 | – | active: 11.9 µM
15 | CCn1c(O)c(/C=C/C=C/C=Nc2ccccc2)sc1=S | – | inconclusive: 33.6 µM [inhibitor, single point]
16 | S=P(N1CC1)(N1CC1)N1CC1 | – | inconclusive: 42.3 µM [inhibitor, partial curve, poor fit]
17 | COc1cccc(N(CC(=O)NC2CCCCC2)C(=O)CCC(=O)Nc2nccs2)c1 | – | inconclusive: 37.7 µM [inhibitor, single point]
18 | COc1ccc(NC(=O)c2ccc3c(=O)n(-c4ccc(OC)cc4OC)c(=S)[nH]c3c2)cc1 | – | inconclusive: 23.8 µM [inhibitor, single point]
19 | Cc1ccc(C)c(N(C(=O)c2snc(C(N)=O)c2N)C(C(=O)NCC2CCCO2)c2ccc(C)o2)c1 (stereo unspecified) | – | inconclusive: 13.4 µM [inhibitor, partial curve, poor fit]
20 | COc1ccc(NC(=O)NCCCN2CCCC2=O)cc1 | inactive: -4.08% | –
21 | COCC(=O)Oc1c(S(=O)(=O)c2ccc(C)cc2)c(C)nn1-c1ccccc1 | inconclusive: -32.4% [inhibitor] | –
22 | CC(C)Cn1c(SCC(=O)N2CCN(C(=O)c3ccco3)CC2)nc2ccccc2c1=O | inactive: -9.03% | –
23 | COc1cc2c(cc1OC)C(COc1ccccc1OC)N(C(=O)C(C)(C)C)CC2 (stereo unspecified) | – | active: 29.9 µM
24 | O=C(COC(=O)C12CC3CC(CC(Br)(C3)C1)C2)Nc1cccnc1Cl | inactive: -13.9% | –

A portion from further up:
Row | Structure (SMILES) | max response, negative = inhibition | Potency
22 | CC(C)Cn1c(SCC(=O)N2CCN(C(=O)c3ccco3)CC2)nc2ccccc2c1=O | inactive: -9.03% | –
23 | COc1cc2c(cc1OC)C(COc1ccccc1OC)N(C(=O)C(C)(C)C)CC2 (stereo unspecified) | – | active: 29.9 µM

Later entries:

Row | Structure (SMILES) | max response, negative = inhibition | Potency
25 | O=C(O)c1c(C(=O)N2N=C3/C(=C/c4ccccc4)CCCC3C2c2ccccc2)cccc1[N+](=O)[O-] (stereo unspecified) | – | inconclusive: 67 µM [inhibitor, partial curve]
26 | Cc1ccccc1C(=O)Nc1cccc(C(=O)N/N=C/c2cc(Cl)cc([N+](=O)[O-])c2O)c1 | inactive: -25.5% | –
27 | CCN(CC)c1ccc(/C=N/NS(=O)(=O)c2cccc([N+](=O)[O-])c2)cc1 | – | inconclusive: 26.7 µM [inhibitor, partial curve]
28 | COc1ccc(N2CCN(C(=O)CSc3ccc([N+](=O)[O-])cc3)CC2)cc1 | – | inconclusive: 26.7 µM [inhibitor, single point]
29 | CS(=O)(=O)N(CC(=O)NCCSCc1cccc(Cl)c1)c1ccc(F)cc1 | – | inconclusive: 29.9 µM [inhibitor, single point]
30 | CCOc1ccc2nc(SCC(=O)c3cccs3)sc2c1 | – | inconclusive: 23.8 µM [inhibitor, partial curve]
31 | CCc1cccc(CC)c1NC(=O)CSc1nc2ccc(N3C(=O)C4C(C3=O)[C@H]3C=C[C@@H]4C3)cc2s1 (stereo partly specified) | inactive: -4.97% | –
32 | NC(=O)c1c(N)sc2c1CCCCC2 | – | inconclusive: 2.67 µM [inhibitor, partial curve]
33 | CC1(C)OC(=O)C(=NNc2ccc(Cl)cc2)C(=O)O1 | inactive: -2.13% | –
34 | CCC(C)N(C(=O)COC(=O)Cc1n[nH]c(=O)c2ccccc12)C1CCS(=O)(=O)C1 (stereo unspecified) | – | inconclusive: 8.44 µM [inhibitor, single point]
35 | CN(C)c1ccc(C2NC(=O)c3ccccc3N2)cc1 (stereo unspecified) | inactive: 2.77% | –
36 | CCc1ccc(NC(=S)N(Cc2ccc(Cl)cc2)Cc2ccc(C(=O)O)cc2)cc1 | – | active: 23.8 µM
37 | O=C(O)c1cc(N/N=C/c2c[nH]c3ccccc23)ccc1Cl | – | inconclusive: 9.47 µM [inhibitor, partial curve]
38 | O=C(N/N=C/c1ccc(OC(=O)c2ccccc2Cl)cc1)c1cc(O)cc(O)c1 | – | inconclusive: 21.2 µM [inhibitor, partial curve]
39 | O=C(CN1CCN(c2ccc(F)cc2)CC1)Nc1ccccc1Br | inactive: -0.0915% | –
40 | O=C1/C(=C\c2cccs2)N=C(c2cccs2)N1Nc1ccccc1 | inactive: -16% | –
41 | COc1ccc(CN2C=C3C(=O)C(C)(OC(=O)CCc4ccccc4)C(=O)C=C3C=C2c2ccc(C#N)cc2)cc1 (stereo unspecified) | inactive: -22.2% | –
42 | Clc1ccc2nc(-c3ccco3)c(Cc3ccsc3)n2c1 | – | inconclusive: 26.7 µM [inhibitor, partial curve]
43 | COC/C=C/C1=CC2=CC(=O)C(C)(OC(=O)C3CCCC3)C(=O)C2=CO1 (stereo unspecified) | – | active: 23.8 µM
44 | CCn1c(N)c(C(=O)NCc2ccc3c(c2)OCO3)sc1=S | – | active: 23.8 µM
45 | CCOc1cc(C2/C(=C(/O)c3ccc(OC)cc3)C(=O)C(=O)N2CC2CCCO2)ccc1O (stereo unspecified) | inconclusive: -30.7% [inhibitor] | –
46 | O=C(NCc1ccccc1)Nc1cccn(Cc2ccccc2F)c1=O | inactive: -6.89% | –
47 | Cc1c(C)n(Cc2ccccc2)c2ncnc(NN)c12 | inactive: 0.139% | –
48 | Cc1c(NC(=O)C(C)OC(=O)/C=C/c2ccco2)c(=O)n(-c2ccccc2)n1C (stereo unspecified) | – | active: 26.7 µM

Row | Structure (SMILES) | max response, negative = inhibition | Potency
49 | CC(=O)C[C@H](O)CC(=O)[C@@H]1OC(=O)CCCCCc2ccccc21 | inactive: -2.82% | –
50 | Nc1nc(COc2ccc(Cl)cc2)cs1 | – | inconclusive: 21.2 µM [inhibitor, single point]
51 | Cc1cccc(C)c1NC(=O)C(c1ccncc1)n1c(=O)c(-c2ccccc2)nc2ccccc21 (stereo unspecified) | inactive: -11.8% | –
52 | CS(=O)(=O)c1ccc2nc(NC(=O)C3CCCO3)sc2c1 (stereo unspecified) | – | inconclusive: 16.8 µM [inhibitor, partial curve]
53 | O=C(Nc1nc(-c2ccco2)c(-c2ccco2)s1)C1CC(=O)N(c2ccc3c(c2)OCCO3)C1 (stereo unspecified) | – | inconclusive: 29.9 µM [inhibitor, single point]
54 | COCCN(C(=O)c1cc(-c2ccco2)nc2ccccc12)c1c(N)n(Cc2ccccc2)c(=O)[nH]c1=O | inconclusive: -36.1% [inhibitor] | –
55 | O=c1cc(CSc2nnnn2-c2ccccc2)nc2sccn12 | inactive: -15.7% | –
56 | O=C(CSc1ncn(-c2ccccc2)n1)c1cccs1 | – | inconclusive: 29.9 µM [inhibitor, partial curve]
57 | Cc1cc(C)c2c(=O)n(CC(=O)Nc3cccc(Cl)c3C)sc2n1 | – | active: 2.67 µM
58 | CCc1cc2c(C)ccc(C)c2nc1SCC(=O)Nc1cc(C)on1 | inactive: 4.67% | –
59 | CC(C)Cn1c(C(C)C)nc([N+](=O)[O-])c1S(=O)(=O)c1ccc(F)cc1 | – | inconclusive: 26.7 µM [inhibitor, partial curve]
60 | CCc1ccc(NC(=O)CSc2nc3ccccc3nc2N2CCCC2)cc1 | inactive: -5.14% | –
61 | CC(C)C(=O)N1CCN(C2=NS(=O)(=O)c3ccccc32)CC1 | – | active: 6.7 µM
62 | N#Cc1c(NC(=O)CSc2nc3c(c(C(F)(F)F)n2)CCc2ccccc2-3)sc2c1CCCC2 | – | inconclusive: 9.47 µM [inhibitor, partial curve]
63 | O=C(CSc1n[nH]c(-c2ccccc2)n1)Nc1ccc(N2CCOCC2)cc1 | – | inconclusive: 29.9 µM [inhibitor, partial curve]
64 | Cc1cccc([C@@H]2[C@@H]3C(=O)N(Cc4ccccc4)C(=O)[C@@H]3[C@]3(C)C(=O)N(c4cccc(Cl)c4)C(=O)N23)c1 | inactive: -12.2% | –
65 | COC(=O)C[C@H]1C[C@H]2c3cc(NS(=O)(=O)c4ccc(OC)cc4)ccc3O[C@H]2[C@H](CO)O1 | inactive: -7.29% | –
66 | COc1ccc(S(=O)(=O)N2CCN(Cc3cccc(F)c3)CC2)cc1 | inactive: -13% | –
67 | COc1ccc(N2CCN(C(=O)Nc3ccccc3Cl)CC2)cc1 | inactive: -0.181% | –
68 | [O-][n+]1c2ccccc2c2n1CCN1CCOC21c1ccc(Cl)cc1 (stereo unspecified) | – | inconclusive: 42.3 µM [inhibitor, partial curve]
69 | O=S(=O)(Nc1nccs1)c1ccc(Br)cc1 | – | inconclusive: 16.8 µM [inhibitor, partial curve]
70 | CN(C)C(=S)Nc1nc2ccccc2s1 | – | active: 10.6 µM
71 | CC(C)C(C(=O)O)N1C(=O)/C(=C/c2cccn2C)SC1=S (stereo unspecified) | inactive: 40.3% | –

Grouped by structure: the entries above with a cyano group.
Row | Structure (SMILES) | max response, negative = inhibition | Potency
41 | COc1ccc(CN2C=C3C(=O)C(C)(OC(=O)CCc4ccccc4)C(=O)C=C3C=C2c2ccc(C#N)cc2)cc1 (stereo unspecified) | inactive: -22.2% | –
62 | N#Cc1c(NC(=O)CSc2nc3c(c(C(F)(F)F)n2)CCc2ccccc2-3)sc2c1CCCC2 | – | inconclusive: 9.47 µM [inhibitor, partial curve]
